Results as given in patent US6372727B1, “Metalloporphyrin treatment of neurologic disease” (UAB Research Foundation, priority 1999, dated 2002).

Test: MP-catalyzed peroxynitrite decomposition monitored at 302 nm
Format: biochemical
Settings: for peroxynitrite decomposition slower than the MP's oxidation by peroxynitrite: absence of ascorbate
Description: Peroxynitrite (100 μM) was added to rapidly stirred cuvettes at 37° C. containing the indicated concentrations of MPs in 0.1 M potassium phosphate, pH 7.4. Ascorbate was added to 150 μM where indicated. Peroxynitrite decomposition was monitored at 302 nm using a Hewlett-Packard diode-array spectrophotometer. Apparent rates (kapparents^−1, average of n=3) were plotted versus MP concentration to determine rate constants in M^−1s^−1.
Reactions contained the indicated concentration of FeTCPPin 1.4 ml of 0.1 M potassium phosphate, pH 7.4 in the absence or presence to 150 μM ascorbic acid. Peroxynitrite (100 μM) was added to rapidly stirred cuvettes at 37° C. and the decay of peroxynitrite was monitored continuously at 302 nm. Decay data were fitted to the equation describing first order decay to obtain apparent decay rates (kapparent sec^−1). Apparent decay rates as a function of FeTCPP were fitted by linear regression and the rate constant was obtained slope of the line.
Peroxynitrite (100 μM) decomposition was determined at 302 nm using a Hewlett-Packard diode-array spectrophotometer fitted with a temperature-controlled cuvette chamber and a water-driven cuvette stirrer. Bolus additions of peroxynitrite were made to vigorously stirred cuvettes containing varying concentrations of MPs (see Table III) while data were collected at a rate of ten points/sec. […] Each reaction was repeated three times and only the first additions of peroxynitrite were averaged. Data were exported for fitting and plotting. Apparent rates of peroxynitrite decomposition were plotted as a function of metalloporphyrin concentration (as shown in FIG. 5) to determine concentration-independent rate constants at 37° C.
Rates of peroxynitrite (100 μM) decomposition were determined at different MP concentrations. Ascorbate was added to 150 μM where indicated. […] Apparent rate constants were plotted versus MP concentration (as in FIG. 5A,B) to determine true rate constants in M^−1s^−1±standard error.

| Structure (SMILES) | peroxynitrite decomposition slower than the MP's oxidation by peroxynitrite [fold] | peroxynitrite decomposition faster than in the absence of ascorbate (150 μM ascorbate) [fold] | peroxynitrite decomposition slower than the stoichiometric oxidation by peroxynitrite (presence of ascorbate) [fold] |
| --- | --- | --- | --- |
| C=CC1=C(C)c2cc3[n-]c(cc4nc(cc5[n-]c(cc1n2)c(C)c5CCC(=O)O)C(CCC(=O)O)=C4C)c(C)c3C=C.[Fe] [FePPIX, Iron (III) protoporphyrin IX dichloride] | 2.8 | – | – |
| C[n+]1ccc(-c2c3nc(c(-c4cc[n+](C)cc4)c4ccc([n-]4)c(-c4cc[n+](C)cc4)c4nc(c(-c5cc[n+](C)cc5)c5ccc2[n-]5)C=C4)C=C3)cc1.[Cl-].[Cl-].[Cl-].[Cl-].[Cl-].[Mn+3] [MnTMPyP, Manganese (III) meso-tetra-(N-methyl-4-pyridyl)-porphine chloride] | 76 | 38 | 2 |
